The list shows a part of the results. This data set is noisy: repeats of one test often differ as much as different tests do.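 U2OS cells expressing ACE2 were combined with U2OS cells expressing full-length spike, and imaging quantified fusion as the fraction of nuclei displaying both cell types' fluorescent markers. Non-toxic compounds with a fusion z-score under -3, i.e., over three standard deviations below the plate's DMSO wells, are called inhibitory hits.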
The compounds below were run on U2OS ACE2 x SARS-CoV-2 spike co-culture (assay: cell-cell fusion (fraction fused) z-score vs plate DMSO control; higher = more fusion). Conditions: 30 µM; 5 h; toxicity class: non-toxic, passed QC.

Compound | cell-cell fusion (z-score)
CC(=O)OC1CCC23C(=O)OC45CCC(C6=CC(=O)OC6)C4(C)CCC2C5CCC3(O)C1 (configuration not stated) | inactive: 2.35
N[C@@H](Cc1cc(I)c(Oc2cc(I)c(O)c(I)c2)c(I)c1)C(=O)O | inactive: 2.26
COc1cc(C(=O)NCc2ccc(OCCN(C)C)cc2)cc(OC)c1OC.Cl | inactive: 2.55
O=c1oc(Cl)c(Cl)c2ccccc12 [3,4-Dichloroisocoumarin] | inactive: 2.67
CCCCS(=N)(=O)CCC(N)C(=O)O (configuration not stated) | inactive: 3.79
COc1ccc(Cl)cc1C(=O)NCCc1ccc(S(=O)(=O)NC(=O)NC2CCCCC2)cc1 | inactive: -1.17
O=C(O)[C@@H]1CCN1 [L-azetidine-2-carboxylic acid] | inactive: 1.82
CCCCCCC/C=C\CCCCCCCCC(=O)O [Oleic Acid] | inactive: 2.98
O=C(/C=C/c1cccc(S(=O)(=O)Nc2ccccc2)c1)NO [Belinostat (PXD101)] | inactive: 0.466
CN(C)CC(c1ccc(O)cc1)C1(O)CCCCC1.O=C(O)CCC(=O)O (configuration not stated) [Desvenlafaxine succinate hydrate] | inactive: 1.55
CN(C)CC(c1ccc(O)cc1)C1(O)CCCCC1.O=C(O)CCC(=O)O (configuration not stated) | inactive: 2.49
CNCC(O)c1ccc(O)cc1 (configuration not stated) | active: -3.74
O=C([O-])c1cc(/N=N/c2ccc(O)c(C(=O)[O-])c2)ccc1O.[Na+].[Na+] | inactive: 0.393
Cn1c(=O)c2nc(C3CCCC3)[nH]c2n(C)c1=O | inactive: 1.23
Cl.N=C(N)NC(=O)c1nc(Cl)c(N)nc1N [Amiloride hydrochloride] | inactive: 2.28
Cc1cccn2c(=O)c(-c3nnn[n-]3)cnc12.[K+] [Pemirolast potassium] | inactive: 2.87
O=C1CCC[C@H]2[C@@H]3CCCN4CCC[C@H](CN12)[C@H]34 | inactive: 1.56
CN1C(C(=O)Nc2ccccn2)=C(O)c2sccc2S1(=O)=O | inactive: 1.97
NC(=O)c1ccc2[nH]c(-c3ccc(Oc4ccc(Cl)cc4)cc3)nc2c1 | active: -5.92
NCC(O)(CS(=O)(=O)O)c1ccc(Cl)cc1 (configuration not stated) [2-Hydroxysaclofen] | inactive: 0.773
CC(C)CC1C(=O)N2CCC[C@H]2C2(O)O[C@](NC(=O)C3C=C4c5cccc6[nH]c(Br)c(c56)C[C@H]4N(C)C3)(C(C)C)C(=O)N12.CS(=O)(=O)O (some centres not stated) | inactive: 1.22
CC[C@H]1[C@@H](O)[C@@H]2[C@H](CC[C@]3(C)[C@@H]([C@H](C)CCC(=O)O)CC[C@@H]23)[C@@]2(C)CC[C@@H](O)C[C@@H]12 [Obeticholic Acid] | inactive: 0.435
CC(C)[C@H](N)C(=O)OCC(CO)OCn1cnc2c(=O)nc(N)[nH]c21.Cl (some centres not stated) [Valganciclovir hydrochloride] | inactive: 2.97
NC(=O)CN1CCCC1=O [Piracetam] | inactive: 2.46

Compound | cell-cell fusion (z-score)
NC(=O)CN1CCCC1=O | inactive: 2.58
C=CC1=C(C)c2cc3[nH]c(cc4nc(cc5[nH]c(cc1n2)c(C)c5CCC(=O)O)C(CCC(=O)OC)=C4C)[C@@]1(C)C3=CC=C(C(=O)OC)[C@H]1C(=O)OC.C=CC1=C(C)c2cc3[nH]c(cc4nc(cc5[nH]c(cc1n2)c(C)c5CCC(=O)OC)C(CCC(=O)O)=C4C)[C@@]1(C)C3=CC=C(C(=O)OC)[C@H]1C(=O)OC [Verteporfin] | inactive: -1.81
CC[C@@H]1C(=O)OC[C@@H]1Cc1cncn1C.O=[N+]([O-])O [Pilocarpine nitrate] | inactive: 2.93
CC(C)(C)NCC(O)c1ccc(O)c(CO)c1 (configuration not stated) [Salbutamol] | inactive: -0.175
CCOc1ccc(NC(=O)CC(C)O)cc1 (configuration not stated) | inactive: 2.96
COc1ccc2c(c1)CCC(c1ccccc1)=C2c1ccc(OCCN2CCCC2)cc1.Cl [Nafoxidine] | inactive: -0.971
CC(NC(C)(C)C)C(=O)c1cccc(Cl)c1.Cl (configuration not stated) [Bupropion hydrochloride] | inactive: 1.59
COc1ccc2c(c1OC)C(=O)O[C@@H]2[C@H]1c2c(cc3c(c2OC)OCO3)CCN1C.Cl [Noscapine hydrchloride] | inactive: 3.59
CCOC(=O)C1=C[C@@H](OC(CC)CC)[C@H](NC(C)=O)[C@@H](N)C1.O=P(O)(O)O [Oseltamivir phosphate] | inactive: 1.86
NC(=O)c1cc[n+](CC2=C(C(=O)[O-])N3C(=O)[C@@H](NC(=O)Cc4cccs4)[C@H]3SC2)cc1 | inactive: 1.16
CC(=O)[C@@]1(O)CC[C@H]2[C@@H]3C=C(Cl)C4=CC(=O)[C@@H]5C[C@@H]5[C@]4(C)[C@H]3CC[C@@]21C | inactive: 4.98
O=C(O)c1ccc2ccccc2c1O.OCc1cc(C(O)CNCCCCCCOCCCCc2ccccc2)ccc1O (configuration not stated) [Salmeterol Xinafoate] | inactive: -2.7
COc1ccc2[nH]c(S(=O)Cc3ncc(C)c(OC)c3C)nc2n1 (configuration not stated) | inactive: -1.15
CC[C@@H](C(N)=O)N1CCCC1=O [Levetiracetam] | inactive: 2.34
COS(C)(=O)=O | inactive: 2.37
O=[N+]([O-])/C=C/c1ccc2c(c1)OCO2 | active: -5.53
O.O.O.Cl.Cl.CN1CC\C(CC1)=C1/c2ccccc2C=Cc2ccccc12.CN1CC\C(CC1)=C1/c2ccccc2C=Cc2ccccc12 [Cyproheptadine hydrochloride] | inactive: 1.98
CCOC(=O)c1ncn2c1[C@@H]1CCCN1C(=O)c1cc(OC)ccc1-2 | inactive: 2.23
N#CCCN.O=C(O)/C=C/C(=O)O | inactive: 2.02
COc1ccc2c(c1)OCC(Cc1ccc(O)c(OC)c1)C2=O (configuration not stated) | inactive: 1.42
CC(C)Cn1c(=O)n(C)c(=O)c2nc[nH]c21 | inactive: 0.102
CCOc1nc2cccc(C(=O)OC(C)OC(=O)OC3CCCCC3)c2n1Cc1ccc(-c2ccccc2-c2nn[nH]n2)cc1 (configuration not stated) [Candesartan cilexetil] | inactive: -0.686
O=C1C=C2C=C[C@@H]3C[C@@]2(O1)[C@H]1CCCCN31 | inactive: -2
CC(=O)OCC(=O)[C@@]1(O)CC[C@H]2[C@@H]3CCC4=CC(=O)C=C[C@]4(C)[C@@]3(Cl)[C@@H](Cl)C[C@@]21C | inactive: 2.92

Compound | cell-cell fusion (z-score)
C[C@H](O[C@H]1OCCN(Cc2n[nH]c(=O)[nH]2)[C@H]1c1ccc(F)cc1)c1cc(C(F)(F)F)cc(C(F)(F)F)c1 [Aprepitant (MK-0869)] | inactive: 2.13
CC1(C)S[C@@H]2[C@H](NC(=O)COc3ccccc3)C(=O)N2[C@H]1C(=O)[O-].[K+] | inactive: 0.208
Cn1c(=O)c2[nH]cnc2n(C)c1=O.Cn1c(=O)c2[nH]cnc2n(C)c1=O.NCCN [Aminophylline ethylenediamine] | inactive: 0.535
FC(F)(F)C(Cl)Br (configuration not stated) [Anestan] | inactive: 2.02
FC(F)(F)C(Cl)Br (configuration not stated) | inactive: 1.05
C[C@H](CCC(=O)O)[C@H]1CC[C@H]2[C@@H]3CC[C@@H]4C[C@H](O)CC[C@]4(C)[C@H]3CC[C@]12C [Lithocholic acid] | inactive: 2.19
O=C(O)[C@H](Cc1c[nH]c2ccccc12)N1C(=O)c2ccccc2C1=O | inactive: 2.23
CC(O)CN(CCN(CC(C)O)CC(C)O)CC(C)O (configuration not stated) | inactive: 0.626
CCCS(=O)(=O)Nc1ccc(F)c(C(=O)c2c[nH]c3ncc(-c4ccc(Cl)cc4)cc23)c1F [Vemurafenib] | inactive: 0.623
Cl.NNc1nncc2ccccc12 [Hydralazine hydrochloride] | inactive: 3.35
N=C(N)NN.O=S(=O)(O)O | inactive: 2.22
Cc1ccccc1N1C(=O)c2cc(S(N)(=O)=O)c(Cl)cc2NC1C (configuration not stated) [Metolazone] | inactive: 1.62
Nc1ccc(S(=O)(=O)NC(=O)c2ccccc2)cc1 [Sulfabenzamide] | inactive: 3.09
CCCCCOC(=O)Nc1nc(=O)n([C@@H]2O[C@H](C)[C@@H](O)[C@@H]2O)cc1F [Capecitabine (Xeloda)] | inactive: 1.02
C=CCSCC1Nc2cc(Cl)c(S(N)(=O)=O)cc2S(=O)(=O)N1 (configuration not stated) | inactive: 3.79
COc1ccc(C2=NC(c3ccc(Cl)cc3)C(c3ccc(Cl)cc3)N2C(=O)N2CCNC(=O)C2)c(OC(C)C)c1 (configuration not stated) [Nutlin-3] | active: -3.1
NS(=O)(=O)c1cc(C(=O)O)c(NCc2ccco2)cc1Cl [Furosemide] | inactive: 3.34
Oc1c(Br)cc(Br)c2cccnc12 | inactive: 1.05
OC[C@H]1OC(n2cnc3c(N[C@H]4CCC[C@@H]4O)ncnc32)[C@H](O)[C@@H]1O (some centres not stated) | inactive: 1.16
CC(C)CC(NC(=O)CCN)C(=O)O (racemic) | inactive: 2.25
CC(C)(O)c1ccccc1CC[C@@H](SCC1(CC(=O)[O-])CC1)c1cccc(/C=C/c2ccc3ccc(Cl)cc3n2)c1.[Na+] [Montelukast sodium] | inactive: 0.902
c1cc(CN2CCCNCCNCCCNCC2)ccc1CN1CCCNCCNCCCNCC1 [Plerixafor] | inactive: 1.03
CCn1cc(C(=O)O)c(=O)c2cc(F)c(N3CCNC(C)C3)c(F)c21.NCCO (configuration not stated) | inactive: 0.43
CCCC(=O)Nc1ccc(OCC(O)CNC(C)C)c(C(C)=O)c1.Cl (configuration not stated) [Acebutolol hydrochloride] | inactive: -0.0315

5 entries from above, with tabs:
Compound	cell-cell fusion (z-score)
Cn1c(=O)c2[nH]cnc2n(C)c1=O.Cn1c(=O)c2[nH]cnc2n(C)c1=O.NCCN [Aminophylline ethylenediamine]	inactive: 0.535
COc1ccc(C2=NC(c3ccc(Cl)cc3)C(c3ccc(Cl)cc3)N2C(=O)N2CCNC(=O)C2)c(OC(C)C)c1 (configuration not stated) [Nutlin-3]	active: -3.1
Oc1c(Br)cc(Br)c2cccnc12	inactive: 1.05
CC(C)(O)c1ccccc1CC[C@@H](SCC1(CC(=O)[O-])CC1)c1cccc(/C=C/c2ccc3ccc(Cl)cc3n2)c1.[Na+] [Montelukast sodium]	inactive: 0.902
CCn1cc(C(=O)O)c(=O)c2cc(F)c(N3CCNC(C)C3)c(F)c21.NCCO (configuration not stated)	inactive: 0.43
